Laboratory results reported in publication PMC2774482 (Basic & Clinical Pharmacology & Toxicology, 2009).
Marks after values point to notes of the source that are not given here.

Experiments:
Caco-2 cell monolayers = experiment: Bidirectional transepithelial transport across Caco-2 cell monolayers; type: in vitro ADME, human
norepinephrine reuptake = norepinephrine reuptake inhibition; cited from earlier work
serotonin reuptake = serotonin reuptake inhibition; cited from earlier work
[1] = 1 µM, pH 6.8/7.4, + 10 µM Cyclosporine A
[2] = 1 µM, pH 6.8/7.4, no inhibitor, TR = Papp(B–A)/Papp(A–B)
[3] = 1 µM, pH 7.4/7.4, + 4 µM GF120918
[4] = 1 µM, pH 7.4/7.4, + 10 µM Cyclosporine A
[5] = 1 µM, pH 7.4/7.4, no inhibitor, TR = Papp(B–A)/Papp(A–B)
[6] = 1 µM, pH 7.4/7.4, no inhibitor, control of GF120918 experiment (Table 2)
[7] = 10 µM, pH 6.8/7.4, + 10 µM Cyclosporine A
[8] = 10 µM, pH 6.8/7.4, no inhibitor
[9] = 10 µM, pH 7.4/7.4, + 10 µM Cyclosporine A
[10] = 10 µM, pH 7.4/7.4, no inhibitor
[11] = 50 µM, pH 6.8/7.4, + 10 µM Cyclosporine A
[12] = 50 µM, pH 6.8/7.4, no inhibitor
[13] = 50 µM, pH 7.4/7.4, + 10 µM Cyclosporine A
[14] = 50 µM, pH 7.4/7.4, no inhibitor
[15] = 100 µM, pH 6.8/7.4, + 10 µM Cyclosporine A
[16] = 100 µM, pH 6.8/7.4, no inhibitor
[17] = 100 µM, pH 7.4/7.4, + 10 µM Cyclosporine A
[18] = 100 µM, pH 7.4/7.4, no inhibitor

Row | SMILES | Efflux ratio (TR) (Caco-2 cell monolayers; [1]) | Efflux ratio (TR) (Caco-2 cell monolayers; [2]) | Efflux ratio (TR) (Caco-2 cell monolayers; [3]) | Efflux ratio (TR) (Caco-2 cell monolayers; [4]) | Efflux ratio (TR) (Caco-2 cell monolayers; [5]) | Efflux ratio (TR) (Caco-2 cell monolayers; [6]) | Efflux ratio (TR) (Caco-2 cell monolayers; [7]) | Efflux ratio (TR) (Caco-2 cell monolayers; [8]) | Efflux ratio (TR) (Caco-2 cell monolayers; [9]) | Efflux ratio (TR) (Caco-2 cell monolayers; [10]) | Efflux ratio (TR) (Caco-2 cell monolayers; [11]) | Efflux ratio (TR) (Caco-2 cell monolayers; [12]) | Efflux ratio (TR) (Caco-2 cell monolayers; [13]) | Efflux ratio (TR) (Caco-2 cell monolayers; [14]) | Efflux ratio (TR) (Caco-2 cell monolayers; [15]) | Efflux ratio (TR) (Caco-2 cell monolayers; [16]) | Efflux ratio (TR) (Caco-2 cell monolayers; [17]) | Efflux ratio (TR) (Caco-2 cell monolayers; [18]) | Ki (norepinephrine reuptake) [nM] | Ki (serotonin reuptake) [nM]
1 | COc1cccc(C2(O)CCCCC2CN(C)C)c1 (single isomer, unassigned; (-)) [(−)-TMD, (−)-tramadol] | 1.9 | 1.9 (efflux) | 1.3 | 1.1 ^§ | 0.9 (no net flux) ^‡ | 1.1 (no net flux) | 2.8 ^§ | 2.4 (efflux) | 1.3 ^§ | 1.1 (no net flux) ^‡ | 3.3 ^§ | 2.4 (efflux) | 1.3 | 1.1 (no net flux) ^‡ | 2.8 | 2.7 (efflux) | 1.8 | 1.5 (no net flux) ^‡ | 430 | 
2 | COc1cccc(C2(O)CCCCC2CN(C)C)c1 (single isomer, unassigned; (+)) [(+)-TMD, (+)-tramadol] | 2.1 | 2.2 (efflux) | 1.3 | 1.3 | 1.1 (no net flux) ^‡ | 1.2 (no net flux) | 3.0 ^§ | 2.4 (efflux) | 1.3 | 1.1 (no net flux) ^‡ | 3.3 ^§ | 2.4 (efflux) | 1.3 ^§ | 1.2 (no net flux) ^‡ | 2.8 | 2.6 (efflux) | 1.7 | 1.6 (no net flux) ^‡ |  | 530
